# Assay results reported in patent publication US20080064034A1, “Multi-Cellular Test Systems” (FRAUNHOFER-GESELLSCHAFT ZUR FÖRDERUNG DER ANGEWAND, priority 2004, published 2008).
# For at least one compound, name, drawing or mass did not settle the structure.
# Columns and labels:
# organoid bodies [1] = test: Western blot of α-SMA in homogenates of organoid bodies incubated with retinoic acid; assay type: cell-based; conditions: 2×10^−6 M retinoic acid, 7, 11, 14 and 17 days
# organoid bodies [2] = test: Western blot of neurofilaments (NF) in homogenates of organoid bodies incubated with retinoic acid; assay type: cell-based; conditions: 2×10^−6 M retinoic acid, 7, 11, 14 and 17 days
structure (smiles),measurement,setting,value
CC1=C(/C=C/C(C)=C/C=C/C(C)=C/C(=O)O)C(C)(C)CCC1 [retinoic acid],amount of actin (α-SMA) versus control,organoid bodies [1],higher during the entire treatment time than in the control
same,amount of synthesized NF detectable in the Western blot,organoid bodies [2],changes only on the 7th and the 11th day of treatment
